# The campaign covered roughly 360,000 compounds. About 780 (0.22%) were called active. This list was built around the results that the source calls inconclusive (neither active nor inactive); the mix of calls is not that of the screen. Rule as the data show it: active = inhibition above about 35% (passing the limit was not always enough); inconclusive = no clear call, values can overlap the other calls.
# Tested on: Botulinum neurotoxin type F light chain protease (Clostridium botulinum)
# Assay: BoNT/F light chain protease inhibitors, primary screen, biochemical, flow cytometry, MLPCN library (AID 588497); also: plate controls were buffer without enzyme for full effect and enzyme alone for no effect
# Conditions: Multiplex microsphere protease cleavage assay, at 10 µM, active compounds read high
row,SMILES,inhibition
1,CC(=O)Nc1cccc(NC(=O)C2CCCO2)c1 (stereo not drawn),inactive: -1.3%
2,O=C(NC1CC1)c1sccc1-n1cccc1,inconclusive: 27.6%
3,Cc1ccccc1C(=O)NNC(=O)c1cccc(Br)c1,inactive: -10.1%
4,Cc1ccc(CNc2nc(C)cs2)cc1,inactive: -15.3%
5,Cc1cc(=O)c(C(=O)Nc2cccc(C(=O)NC3CC3)c2)nn1-c1ccccc1Cl,inconclusive: 5.5%
6,Cc1ccsc1/C=N/NC(=O)c1ccco1,inactive: -2.4%
7,O=C(N/N=C/c1c(O)n(Cc2ccc(F)cc2)c(=O)[nH]c1=O)c1ccccc1,inconclusive: -8.7%
8,COc1ccc(C=C2c3ccccc3C(=O)c3ccccc32)c(OC)c1,inconclusive: -62.1%
9,O=C(OCCN1CCCCC1)c1cccc(Cl)c1,inconclusive: 0.7%
10,CN(C)C(=O)Oc1cccc2c(OC(=O)N(C)C)cccc12,inconclusive: -24.8%
11,O=S1(=O)N=C(N(CCO)/N=C/c2ccccc2F)c2ccccc21,active: 74.7%
12,O=C(c1cccc(C(F)(F)F)c1)N1CCc2c([nH]c3ccccc23)C1C(F)(F)F (stereo not drawn),inconclusive: -57.7%
13,COC(=O)CCC(=O)Nc1sc2c(c1C#N)CCCC2,inconclusive: 23.5%
14,Cc1c(NC(=O)c2ccco2)c(=O)n(-c2ccccc2)n1C,inconclusive: -11.3%
15,COc1ccc(C(=O)NCc2ccncc2)cc1OC,inactive: 0.7%
16,Fc1ccc2c(c1)C(c1ccncc1)=NNC(c1cccnc1)=N2,inconclusive: -5.2%
17,Cc1ccc(CSc2nnc(CCCCCNC(=O)OC(C)(C)C)o2)cc1,inconclusive: 12%
18,CN(C)CCNc1nc(Oc2ccccc2)c2sccc2n1,inactive: -7.7%
19,Cc1nn(C2CCS(=O)(=O)C2)c(C)c1CN(C)C(=O)c1ccc(Cl)cc1 (stereo not drawn),inconclusive: 7.8%
20,COc1ccc(NC(=O)c2c(OC)cccc2OC)c(OC)c1,inactive: -15.7%

row,SMILES,inhibition
1,Cc1c(NC(=S)N/N=C/c2ccc(Br)cc2)c(=O)n(-c2ccccc2)n1C,inconclusive: 105%
2,COC(=O)[C@@]12CCCCN1[C@H](c1ccc(-c3ccc(OC)cc3)c(OC)c1)[C@@H]1C(=O)N(C)C(=O)[C@@H]12,inactive: -5%
3,CCOC(=O)c1nn(-c2ccc(C)cc2)c(=O)cc1OCC(=O)Nc1cccc(C)c1,active: 42.7%
4,Cc1cc(C)c2c(n1)sc1c(=O)n(Cc3ccc(F)cc3)cnc12,inconclusive: -91.9%
5,CCC(C(=O)OCC(=O)N(CC)c1c(N)n(Cc2ccccc2)c(=O)[nH]c1=O)c1ccccc1 (stereo not drawn),inactive: -7.5%
6,Cc1ccnc(NS(=O)(=O)c2ccc(NC(=O)c3ccccc3F)cc2)n1,inconclusive: -27.3%
7,CN(C)c1ccc(/C=C2\SC(N3CCCCC3)=NC2=O)cc1,inconclusive: -43.4%
8,N#CC(C#N)=C1C(=O)N(CCN2CCOCC2)c2ccccc21,inconclusive: 22.5%
9,CS(=O)(=NS(=O)(=O)c1ccc(Cl)cc1)c1ccccc1 (stereo not drawn),inconclusive: 19.2%
10,CCOC(=O)CCNC(=O)N1CCCC(Cc2ccccc2)(C(=O)OCC)C1 (stereo not drawn),inconclusive: -4.6%
11,O=[N+]([O-])c1ccc(N2CCN(S(=O)(=O)c3ccc(Cl)cc3)CC2)cc1NCC1CCCO1 (stereo not drawn),inactive: -4.9%
12,CCN(CC(=O)Nc1c(F)cccc1F)C(=O)c1cc([N+](=O)[O-])ccc1N1CCOCC1,inconclusive: -19.9%
13,CCOC(=O)Cn1c(-c2ccccn2)nc2ccccc21,inactive: 0.7%
14,COc1ccc2nc(NC(=O)CSc3n[nH]c(N)n3)sc2c1,inconclusive: -7.9%
15,COc1cccc(NC2CC(=O)N(CCc3ccccc3)C2=O)c1 (stereo not drawn),inconclusive: 11.6%
16,CCOc1ccc(NC(=S)NC23CC4CC(CC(C4)C2)C3)cc1,inconclusive: -30.7%
17,CN1CCN(CC(=O)Nc2nnc(-c3cccs3)s2)CC1,active: 36.2%
18,CC1(C)CC(=O)C2=C(C1)N(Cc1ccccc1)C(=O)C2(NC(=O)C(C)(C)C)C(F)(F)F (stereo not drawn),inactive: -5%
19,Cc1ccc(CSCC(=O)N(C)CC(=O)Nc2cccc(F)c2)cc1,inconclusive: -4.8%
20,Cc1cc(NC(=O)NCC(F)(F)F)no1,inconclusive: -31.9%

# An excerpt from above in order of number of heavy atoms, ascending.
row,SMILES,inhibition
9,CS(=O)(=NS(=O)(=O)c1ccc(Cl)cc1)c1ccccc1 (stereo not drawn),inconclusive: 19.2%
17,CN1CCN(CC(=O)Nc2nnc(-c3cccs3)s2)CC1,active: 36.2%
3,CCOC(=O)c1nn(-c2ccc(C)cc2)c(=O)cc1OCC(=O)Nc1cccc(C)c1,active: 42.7%

# The listing continues:

row,SMILES,inhibition
1,COc1ccccc1C1CC(c2ccc(NS(C)(=O)=O)cc2)=NN1C(=O)c1ccccc1 (stereo not drawn),inactive: -5.4%
2,CCN1CCN(C2CCCCC2NS(=O)(=O)c2ccc(Cl)cc2)CC1 (stereo not drawn),inactive: -2%
3,CCOC(=O)C1(Cc2cccc(Cl)c2)CCCN(CCO)C1 (stereo not drawn),inactive: -0.6%
4,Cc1cc(O)c(CN2CCN(S(=O)(=O)c3cccs3)CC2)cc1C(C)C,inconclusive: -14%
5,COc1ccc(OC(=O)Nc2ccc([N+](=O)[O-])cc2OC)cc1,inconclusive: -15.9%
6,COc1cccc(C2Nc3ccccc3NC3=C2C(=O)CC(C)(C)C3)c1 (stereo not drawn),inconclusive: -5.8%
7,CNC(=O)CSc1nc2ccccc2c(=O)n1C1CCCCC1,inconclusive: 18.4%
8,CC(=O)Oc1ccc(C(=O)NC(C)CCc2ccccc2)cc1 (stereo not drawn),inconclusive: -12.2%
9,O=C(Oc1ccc(C(=S)N2CCOCC2)cc1)c1cccc(Cl)c1,inconclusive: -164%
10,Cc1ccc(F)c(S(=O)(=O)NC(=O)C2(C)CCN2C(=O)c2ccc(C(F)(F)F)nc2C)c1 (stereo not drawn),inactive: 3.9%
11,COc1ccc(CC2CC(=O)N(c3ccc(C)cc3)C2=O)cc1 (stereo not drawn),inconclusive: -1.1%
12,COC(=O)c1ccc(-c2ccc(/C=N/NC(=O)Cc3nnc(N)s3)o2)cc1,inconclusive: 8.7%
13,Cc1ccc(C(CCNC(C)c2cccs2)c2ccco2)cc1 (stereo not drawn),inconclusive: -12.4%
14,CNC(=S)N(C)CCc1cc2c(c(OC)c1C=C1C(=O)NC(=O)NC1=O)OCO2,inconclusive: -26.6%
15,COc1cccc(NC(=O)c2cc3ccccc3cc2OC)c1,inconclusive: -7.2%
16,Cc1ccsc1/C=N/NC(=O)Cc1ccc([N+](=O)[O-])cc1,inconclusive: 80.9%
17,O=C(O)c1ccc(Cn2cc(/C=C\[N+](=O)[O-])c3ccccc32)o1,inconclusive: -3%
18,O=C(CCN1C(=O)c2ccccc2C1=O)C1=NN[C@@H]2C(=O)N(c3ccc4c(c3)OCCO4)C(=O)[C@H]12,inactive: -3.8%

# — PubChem BioAssay AID588497 (NMMLSC, 2011)
